Test results taken from PubChem BioAssay AID493014 (National Center for Advancing Translational Sciences (NCATS), 2011).
The list shows a part of the results. Further columns of the screen follow, without active or inactive calls. Compounds called inactive in the main read-out are mostly missing here. Words in brackets tell the shape of the fitted curve; partial curves, single points and poor fits give uncertain potencies.

Test: qHTS Assay to Find Inhibitors of Chronic Active B-Cell Receptor Signaling
Details: ABC-DLBCL IkBa-CBG/CBR reporter, luminescence ratio (green luciferase fused to IkBa over red control in TMD8 lymphoma cells), 4 h
Summary of the method: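 TMD8 ABC-DLBCL cells carrying doxycycline-inducible green luciferase fused to IkappaBalpha plus unfused red luciferase were exposed to compounds (up to 46 uM) for 4 hrs at 37C. Activity came from the overlap-corrected green/red luminescence ratio.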

[1] = measured here: CBR red luminescence, cell number
[2] = measured here: IkBa-CBG green luminescence

Structure (SMILES) | AC50 [1] | AC50 [2]
O=C(O)c1ccc(-c2ccc(/C=c3/sc4nc5ccccc5n4c3=O)o2)cc1Cl | 22.4 µM [falling, single point] | 
O=C(NNC(=S)Nc1ccc(Cl)c(Cl)c1)c1ccccn1 | 10 µM [falling, partial curve] | 25.1 µM [falling, single point]
O=C1Nc2ccc(F)cc2C12Nc1ccccc1-c1nnc(SCc3ccccc3)nc1O2 (stereo unspecified) | 11.2 µM [falling, partial curve] | 
O=C1NN(c2ccccc2)C(=O)/C1=C/c1ccc(Sc2cccc3ccccc23)o1 | 0.0731 µM [rising, full curve, poor fit] | 
COCn1c(COc2ccccc2)nc2ccccc21 | 13 µM [rising, partial curve, poor fit] | 
Cc1ccc(C(=O)NNC(=O)c2ccncc2)cc1[N+](=O)[O-] | 20.6 µM [falling, partial curve] | 
Cc1csc2nc(CNC(=O)C3CCCCC3)cn12 | 11.6 µM [rising, partial curve, poor fit] | 
COc1ccc(OCCOC(=O)Nc2ccccc2)cc1 | 2.51 µM [rising, partial curve] | 
O=[N+]([O-])c1cc(S(=O)(=O)N2CCCC2)ccc1OCc1ccccc1 | 2 µM [falling, partial curve, poor fit] | 
CCn1c(NCc2ccc3c(c2)OCO3)nc2ccccc21 | 0.562 µM [rising, partial curve, poor fit] | 
O=C(NN=C1CCCC1)c1cccc(O)c1 | 6.31 µM [falling, partial curve] | 
O=C(O)c1nn(CCOc2ccc(Cl)cc2Cl)c(=O)c2ccccc12 | 1.12 µM [rising, partial curve] | 
O=C1N/C(=C/c2ccc(N3CCOCC3)o2)C(=O)N1c1ccccc1 | 29.1 µM [falling, single point] | 3.66 µM [falling, partial curve, poor fit]
CCOc1ccc(-n2c(C)nc3cc(C(=O)NCc4ccc5c(c4)OCO5)ccc32)cc1 | 6.51 µM [rising, single point] | 
CCc1cccc(CC)c1NC(=O)CN1C2CCCC1CC(NC(=O)Nc1cccc(OC)c1)C2 (stereo unspecified) | 3.98 µM [rising, single point] | 
O=C(COC(=O)c1cc([N+](=O)[O-])ccc1N1CCOCC1)c1ccccc1 | 23.1 µM [falling, partial curve, poor fit] | 
O=C(/C=C/c1ccc(Cl)cc1)NC(=S)Nc1ccc(C(=O)O)cc1 | 3.55 µM [falling, full curve] | 
O=C(Nc1ccccc1Cl)c1ccc2c(=O)n3c(nc2c1)CCC3 | 23.1 µM [falling, single point] | 
Cn1cnnc1SCC(=O)c1cc2ccccc2oc1=O | 18.4 µM [falling, single point] | 
CCC(C)c1ccc(NC(=S)Nc2ccc(OC)cc2C)cc1 (stereo unspecified) | 25.9 µM [falling, single point] | 
CCOC(=O)C[n+]1c(C)sc2ccc(OC)cc21 | 22.4 µM [falling, single point] | 

Reprinted from the entries so far (3 entries):
Structure (SMILES) | AC50 [1] | AC50 [2]
O=C1N/C(=C/c2ccc(N3CCOCC3)o2)C(=O)N1c1ccccc1 | 29.1 µM [falling, single point] | 3.66 µM [falling, partial curve, poor fit]
CCOc1ccc(-n2c(C)nc3cc(C(=O)NCc4ccc5c(c4)OCO5)ccc32)cc1 | 6.51 µM [rising, single point] | 
CCc1cccc(CC)c1NC(=O)CN1C2CCCC1CC(NC(=O)Nc1cccc(OC)c1)C2 (stereo unspecified) | 3.98 µM [rising, single point] | 

(listing goes on)

Structure (SMILES) | AC50 [1] | AC50 [2]
NNC(=O)c1cnn(-c2ccccc2)c1-n1cccc1 | 31.6 µM [rising, single point] | 31.6 µM [falling, single point]
O=C(/C=C/c1ccc2c(c1)OCCCO2)c1ccccc1O | 18.4 µM [falling, partial curve] | 
CC(C)n1nnnc1SCC(=O)N1N=C(c2cccs2)CC1c1cccs1 (stereo unspecified) | 18.4 µM [rising, partial curve, poor fit] | 
COC(=O)c1ccccc1SC1CC(=O)N(c2ccccc2)C1=O (stereo unspecified) | 0.058 µM [falling, full curve, poor fit] | 
O=C1CC(N2CCN(c3ccccn3)CC2)C(=O)N1CC(c1ccccc1)c1ccccc1 (stereo unspecified) | 23.1 µM [falling, single point] | 
O=C(COC(=O)c1cncc(Br)c1)NCCC1=CCCCC1 | 32.6 µM [falling, single point] | 
COc1ccc(CCNC(=O)c2c(Cl)ccc(Cl)c2OC)cc1OC | 14.1 µM [rising, partial curve, poor fit] | 
Cc1ccc(C(=O)N(C)CC(=O)Nc2ccc(Cl)c(C(F)(F)F)c2)cc1S(=O)(=O)N1CCCCC1 | 20.6 µM [falling, single point] | 
NS(=O)(=O)c1ccc(NC(=S)NC2CCCCC2)cc1 | 22.4 µM [falling, single point] | 
O=C(CCc1c[nH]c2ccccc12)NCCc1ccc(O)cc1 | 15.8 µM [rising, partial curve, poor fit] | 
CCSC(C)CC1C/C(=N/O)c2c(CC)noc2C1 (stereo unspecified) | 0.259 µM [rising, full curve, poor fit] | 
COc1ccccc1-c1cc(-c2ccc(O)cc2)nc(N)c1C#N | 3.98 µM [falling, full curve, poor fit] | 
COc1cc(/C=N/O)ccc1OCc1ccc(C(=O)O)cc1 | 0.461 µM [falling, full curve] | 
CCOc1cc(/C=N/Nc2nnc(C)n2N)ccc1O | 35.5 µM [falling, single point] | 
Cc1nc(Nc2nc3ccccc3o2)nc2c1CCC2 | 0.112 µM [rising, full curve, poor fit] | 
C/C(CC(=O)NC12CC3CC(CC(C3)C1)C2)=N\NC(=O)c1ccc(F)cc1 | 8.91 µM [falling, partial curve, poor fit] | 
CN1CCN(c2oc(COc3ccc(-c4ccccc4)cc3)nc2C#N)CC1 | 6.51 µM [rising, single point] | 
CCC(C)Nc1nc(-c2cccc(OC)c2O)nc2ccccc12 (stereo unspecified) | 17.8 µM [falling, partial curve, poor fit] | 
CCOc1ccc(C(=O)NC(=S)Nc2ccc(N3CCOCC3)c(Cl)c2)cc1[N+](=O)[O-] | 7.31 µM [rising, partial curve, poor fit] | 
C=C1C(=O)C=C[C@]2(C)C[C@@H]3OC(=O)[C@](C)(O)[C@H]3C[C@@H]12 | 35.5 µM [falling, single point] | 3.55 µM [falling, partial curve, poor fit]
O=Cc1cccc(OC(=O)c2ccc(Cl)cc2Cl)c1 | 9.2 µM [rising, partial curve] | 

Structure (SMILES) | AC50 [1] | AC50 [2]
Cc1ccc(OCC(=O)Nc2ccccc2F)cc1C | 7.08 µM [falling, partial curve] | 
CCOc1ccc(/C=N/Nc2ccccc2)cc1 | 14.1 µM [falling, single point] | 
Cc1cc(C)c2c(N)c(C(=O)Nc3cccc(C)c3C)sc2n1 | 11.2 µM [falling, partial curve] | 
Cc1ccc(NC(=O)c2cc(S(=O)(=O)NC3CCCCCC3)ccc2F)cc1F | 14.1 µM [falling, partial curve, poor fit] | 
CC[n+]1c(/C=C/C=C/N(C(C)=O)c2ccccc2)sc2cc(OC)ccc21 | 13 µM [rising, partial curve, poor fit] | 
Fc1ccccc1Cn1cc(C(=S)N2CCOCC2)c2ccccc21 | 10 µM [falling, partial curve] | 
CCc1ccc(C(=O)COC(=O)c2cc([N+](=O)[O-])ccc2N2CCOCC2)cc1 | 0.0082 µM [rising, full curve, poor fit] | 
Cc1cc2oc(C(=O)NC3CCS(=O)(=O)C3)c(C)c2cc1C (stereo unspecified) | 2.91 µM [rising, partial curve, poor fit] | 
Cc1cccc(OCc2nc(C#N)c(NCc3ccc4c(c3)OCO4)o2)c1 | 0.164 µM [falling, full curve, poor fit] | 
COc1ccc(Br)cc1/C=C(\C(=O)O)c1ccc(S(=O)(=O)N2CCCC2)s1 | 6.51 µM [falling, partial curve, poor fit] | 
COc1ccc(NC(=S)NC(=O)/C=C/c2cccs2)cc1 | 7.94 µM [rising, partial curve] | 
COc1ccc(C(=O)NCCCc2nc3ccccc3n2Cc2ccccc2C)cc1OC | 1.84 µM [rising, partial curve, poor fit] | 
O=C(NCCc1ccc(Cl)cc1)c1n[nH]c2ccccc12 | 3.98 µM [falling, partial curve] | 
CCN(CC)c1ccc(/C=C2\SC(=O)N(C(C)C)C2=O)o1 | 14.1 µM [falling, single point] | 
CC(C)C[C@@H](C(=O)NC1CCN(Cc2ccccc2)CC1)N1C(=O)N2CCc3c([nH]c4ccccc34)[C@@]2(C)C1=O | 8.91 µM [falling, partial curve] | 
CC(NC(=O)C12CC3CC(CC(C3)C1)C2)C(=O)N/N=C/C1=C(N2CCOCC2)C(=C\c2cccc([N+](=O)[O-])c2)/CC1 (stereo unspecified) | 1.46 µM [rising, full curve, poor fit] | 
O=C(N/N=C/c1cccc([N+](=O)[O-])c1)c1ccc2c(c1)OCCO2 | 1.58 µM [falling, full curve, poor fit] | 
O=C(COC(=O)CCc1nc2ccccc2c(=O)[nH]1)Nc1c(Cl)cccc1C(F)(F)F | 4.11 µM [rising, single point] | 
CC(C)c1csc(CN2CCC(N3CCC(C(=O)N4CCOCC4)CC3)CC2)n1 | 11.2 µM [rising, partial curve, poor fit] | 
COC(=O)c1cc(Cl)cc(Cl)c1OS(=O)(=O)N(C)C | 14.1 µM [rising, partial curve, poor fit] | 
